Article doi:10.1101/2022.08.25.505293

By UniProt entry, the sequences of proteins in these tests, tags left out.
UniProt P08670: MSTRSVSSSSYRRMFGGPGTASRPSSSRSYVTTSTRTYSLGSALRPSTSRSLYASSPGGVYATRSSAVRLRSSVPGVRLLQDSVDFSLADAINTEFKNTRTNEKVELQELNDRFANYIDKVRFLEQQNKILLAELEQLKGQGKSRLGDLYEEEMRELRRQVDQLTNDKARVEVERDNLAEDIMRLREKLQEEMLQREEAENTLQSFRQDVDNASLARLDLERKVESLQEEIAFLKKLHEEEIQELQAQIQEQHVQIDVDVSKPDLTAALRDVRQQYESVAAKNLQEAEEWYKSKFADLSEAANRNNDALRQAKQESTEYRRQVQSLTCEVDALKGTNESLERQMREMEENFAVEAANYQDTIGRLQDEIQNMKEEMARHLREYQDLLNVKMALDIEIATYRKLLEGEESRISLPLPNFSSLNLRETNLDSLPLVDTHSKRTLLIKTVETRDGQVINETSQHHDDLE

T1: GORAB fused to the biotin ligase BirA (UniProt Q5T7V8)
T1 sequence: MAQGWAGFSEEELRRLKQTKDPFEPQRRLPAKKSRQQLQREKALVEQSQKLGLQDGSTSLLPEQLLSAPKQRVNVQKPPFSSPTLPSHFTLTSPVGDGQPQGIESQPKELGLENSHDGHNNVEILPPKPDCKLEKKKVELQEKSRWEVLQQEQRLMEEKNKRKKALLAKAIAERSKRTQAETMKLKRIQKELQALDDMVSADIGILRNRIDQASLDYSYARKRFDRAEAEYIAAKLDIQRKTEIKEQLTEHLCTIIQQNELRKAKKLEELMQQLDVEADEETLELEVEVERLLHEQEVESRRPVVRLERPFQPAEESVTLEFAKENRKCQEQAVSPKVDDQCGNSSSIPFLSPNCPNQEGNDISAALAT

B1: COPI subunit γ2-COP (protein, UniProt Q9UBF2 1-871)
chain: MIKKFDKKDEESGSGSNPFQHLEKSAVLQEARIFNETPINPRRCLHILTKILYLLNQGEHFGTTEATEAFFAMTRLFQSNDQTLRRMCYLTIKEMATISEDVIIVTSSLTKDMTGKEDVYRGPAIRALCRITDGTMLQAIERYMKQAIVDKVSSVSSSALVSSLHMMKISYDVVKRWINEAQEAASSDNIMVQYHALGVLYHLRKNDRLAVSKMLNKFTKSGLKSQFAYCMLIRIASRLLKETEDGHESPLFDFIESCLRNKHEMVIYEAASAIIHLPNCTARELAPAVSVLQLFCSSPKPALRYAAVRTLNKVAMKHPSAVTACNLDLENLITDSNRSIATLAITTLLKTGSESSVDRLMKQISSFVSEISDEFKVVVVQAISALCQKYPRKHSVMMTFLSNMLRDDGGFEYKRAIVDCIISIVEENPESKEAGLAHLCEFIEDCEHTVLATKILHLLGKEGPRTPVPSKYIRFIFNRVVLENEAVRAAAVSALAKFGAQNESLLPSILVLLQRCMMDTDDEVRDRATFYLNVLQQRQMALNATYIFNGLTVSVPGMEKALHQYTLEPSEKPFDMKSIPLAMAPVFEQKAEITLVATKPEKLAPSRQDIFQEQLAAIPEFLNIGPLFKSSEPVQLTEAETEYFVRCIKHMFTNHIVFQFDCTNTLNDQLLEKVTVQMEPSDSYEVLSCIPAPSLPYNQPGICYTLVRLPDDDPTAVAGSFSCTMKFTVRDCDPNTGVPDEDGYDDEYVLEDLEVTVSDHIQKVLKPNFAAAWEEVGDTFEKEETFALSSTKTLEEAVNNIITFLGMQPCERSDKVPENKNSHSLYLAGIFRGGYDLLVRSRLALADGVTMQVTVRSKERTPVDVILASVG
B2: Scyl1 (protein, UniProt Q96KG9 1-808)
chain: MWFFARDPVRDFPFELIPEPPEGGLPGPWALHRGRKKATGSPVSIFVYDVKPGAEEQTQVAKAAFKRFKTLRHPNILAYIDGLETEKCLHVVTEAVTPLGIYLKARVEAGGLKELEISWGLHQIVKALSFLVNDCSLIHNNVCMAAVFVDRAGEWKLGGLDYMYSAQGNGGGPPRKGIPELEQYDPPELADSSGRVVREKWSADMWRLGCLIWEVFNGPLPRAAALRNPGKIPKTLVPHYCELVGANPKVRPNPARFLQNCRAPGGFMSNRFVETNLFLEEIQIKEPAEKQKFFQELSKSLDAFPEDFCRHKVLPQLLTAFEFGNAGAVVLTPLFKVGKFLSAEEYQQKIIPVVVKMFSSTDRAMRIRLLQQMEQFIQYLDEPTVNTQIFPHVVHGFLDTNPAIREQTVKSMLLLAPKLNEANLNVELMKHFARLQAKDEQGPIRCNTTVCLGKIGSYLSASTRHRVLTSAFSRATRDPFAPSRVAGVLGFAATHNLYSMNDCAQKILPVLCGLTVDPEKSVRDQAFKAIRSFLSKLESVSEDPTQLEEVEKDVHAASSPGMGGAAASWAGWAVTGVSSLTSKLIRSHPTTAPTETNIPQRPTPEGVPAPAPTPVPATPTTSGHWETQEEDKDTAEDSSTADRWDDEDWGSLEQEAESVLAQQDDWSTGGQVSRASQVSNSDHKSSKSPESDWSSWEAEGSWEQGWQEPSSQEPPPDGTRLASEYNWGGPESSDKGDPFATLSARPSTQPRPDSWGEDNWEGLETDSRQVKAELARKKREERRREMEAKRAERKVAKGPMKLGARKLD

These molecules were tested against T1, GORAB fused to the biotin ligase BirA (assay: proximity labelling).

Molecule	binding
vimentin (from UniProt P08670 1-466)	binds
B1	binds
B2	binds

Results are given in words; binding and its absence hold for the method and conditions named. Binding seen in cells or lysates may run through a third protein. Here binding means that the protein was enriched with, or labelled near, the bait; the list need not be complete. Tags and fused reporters may be left off the sequences shown.
